Source: patent publication US20080022467A1, “Disazo dyes and their preparation and use” (ILFORD Imaging Switzerland GmbH, priority 2006, published 2008)

Key:
[1] = Dye diffusion of printed grid patches on storage; set-up: key: A: excellent; B: good; C: satisfactory; D: unsatisfactory; details: 7 days, 40° C., 80% relative humidity; for Dye Diffusion (Class) on Recording Sheet A: A: HP Printing Paper HPP 1122 (paper); for Dye Diffusion (Class) on Recording Sheet B: B: HP Premium Plus (polymer based); for Dye Diffusion (Class) on Recording Sheet C: C: ILFORD Galerie Smooth Glossy (nanoporous); for Dye Diffusion (Class) on Recording Sheet D: D: ILFORD Printasia Premium Photo Glossy Paper (nanoporous); for Dye Diffusion (Class) on Recording Sheet E: E: ILFORD Galerie Classic Gloss Paper (polymer based); for Dye Diffusion (Class) on Recording Sheet F: F: EPSON Premium Glossy Photo Paper (nanoporous); for Dye Diffusion (Class) on Recording Sheet G: G: CANON Photo Paper Pro PR-101 (nanoporous)
[2] = Color saturation C* of printed patches; set-up: key: A: excellent; B: good; C: satisfactory; D: unsatisfactory; details: for Color Saturation C* (Class) on Recording Sheet A: A: HP Printing Paper HPP 1122 (paper); for Color Saturation C* (Class) on Recording Sheet B: B: HP Premium Plus (polymer based); for Color Saturation C* (Class) on Recording Sheet C: C: ILFORD Galerie Smooth Glossy (nanoporous); for Color Saturation C* (Class) on Recording Sheet D: D: ILFORD Printasia Premium Photo Glossy Paper (nanoporous); for Color Saturation C* (Class) on Recording Sheet E: E: ILFORD Galerie Classic Gloss Paper (polymer based); for Color Saturation C* (Class) on Recording Sheet F: F: EPSON Premium Glossy Photo Paper (nanoporous); for Color Saturation C* (Class) on Recording Sheet G: G: CANON Photo Paper Pro PR-101 (nanoporous)

Row | SMILES | Dye Diffusion (Class) on Recording Sheet A [1] | Dye Diffusion (Class) on Recording Sheet B [1] | Dye Diffusion (Class) on Recording Sheet C [1] | Dye Diffusion (Class) on Recording Sheet D [1] | Dye Diffusion (Class) on Recording Sheet E [1] | Dye Diffusion (Class) on Recording Sheet F [1] | Dye Diffusion (Class) on Recording Sheet G [1] | Color Saturation C* (Class) on Recording Sheet A [2] | Color Saturation C* (Class) on Recording Sheet B [2] | Color Saturation C* (Class) on Recording Sheet C [2] | Color Saturation C* (Class) on Recording Sheet D [2] | Color Saturation C* (Class) on Recording Sheet E [2] | Color Saturation C* (Class) on Recording Sheet F [2] | Color Saturation C* (Class) on Recording Sheet G [2]
1 | O=S(=O)([O-])CCCSc1nc(Nc2ccc(N=Nc3cc(S(=O)(=O)[O-])c4cccc(S(=O)(=O)[O-])c4c3)cc2)nc(Nc2ccc(N=Nc3cc(S(=O)(=O)[O-])c4cccc(S(=O)(=O)[O-])c4c3)cc2)n1.[Na+].[Na+].[Na+].[Na+].[Na+] [Dye No. 10] | A | C | B | B | A | A | A | A | A | A | A | A | A | A
2 | O=S(=O)([O-])CCNc1nc(Nc2ccc(N=Nc3cc(S(=O)(=O)[O-])c4cccc(S(=O)(=O)[O-])c4c3)cc2)nc(Nc2ccc(N=Nc3cc(S(=O)(=O)[O-])c4cccc(S(=O)(=O)[O-])c4c3)cc2)n1.[Na+].[Na+].[Na+].[Na+].[Na+] [Dye No. 11] | A | B | B | A | A | A | A | A | A | A | A | A | A | A
3 | CN(CCS(=O)(=O)[O-])c1nc(Nc2ccc(N=Nc3cc(S(=O)(=O)[O-])c4cccc(S(=O)(=O)[O-])c4c3)cc2)nc(Nc2ccc(N=Nc3cc(S(=O)(=O)[O-])c4cccc(S(=O)(=O)[O-])c4c3)cc2)n1.[Na+].[Na+].[Na+].[Na+].[Na+] [Dye No. 14] | A | B | B | A | B | A | A | A | A | A | A | A | A | A
4 | O=S(=O)([O-])CCCSc1nc(Nc2ccc(N=Nc3ccc4cc(S(=O)(=O)[O-])cc(S(=O)(=O)[O-])c4c3)cc2)nc(Nc2ccc(N=Nc3ccc4cc(S(=O)(=O)[O-])cc(S(=O)(=O)[O-])c4c3)cc2)n1.[Na+].[Na+].[Na+].[Na+].[Na+] [Dye No. 15] | A | C | C | B | B | B | B | B | B | B | B | C | B | B
5 | O=S(=O)([O-])CCNc1nc(Nc2ccc(N=Nc3ccc4cc(S(=O)(=O)[O-])cc(S(=O)(=O)[O-])c4c3)cc2)nc(Nc2ccc(N=Nc3ccc4cc(S(=O)(=O)[O-])cc(S(=O)(=O)[O-])c4c3)cc2)n1.[Na+].[Na+].[Na+].[Na+].[Na+] [Dye No. 16] | A | C | A | A | B | A | A | C | B | A | B | C | A | B
6 | CN(CCS(=O)(=O)[O-])c1nc(Nc2ccc(N=Nc3ccc4cc(S(=O)(=O)[O-])cc(S(=O)(=O)[O-])c4c3)cc2)nc(Nc2ccc(N=Nc3ccc4cc(S(=O)(=O)[O-])cc(S(=O)(=O)[O-])c4c3)cc2)n1.[Na+].[Na+].[Na+].[Na+].[Na+] [Dye No. 17] | A | C | B | A | B | B | B | D | B | A | C | C | B | B
7 | O=C([O-])c1cc(Nc2nc(Nc3ccc(N=Nc4cc(S(=O)(=O)[O-])c5cccc(S(=O)(=O)[O-])c5c4)cc3)nc(Nc3ccc(N=Nc4cc(S(=O)(=O)[O-])c5cccc(S(=O)(=O)[O-])c5c4)cc3)n2)cc(C(=O)[O-])c1.[Na+].[Na+].[Na+].[Na+].[Na+].[Na+] [Dye No. 18] | A | C | B | A | A | A | A | C | A | A | A | A | A | A
8 | O=S(=O)([O-])c1cc(/N=N/c2ccc(Nc3nc(NCCO)nc(Nc4ccc(/N=N/c5cc(S(=O)(=O)[O-])c6cccc(S(=O)(=O)[O-])c6c5)cc4)n3)cc2)cc2c(S(=O)(=O)[O-])cccc12.[Na+].[Na+].[Na+].[Na+] [Dye No. I, reference compound] | B | C | C | A | C | C | A | B | A | A | A | A | A | A
